From the supplement of paper PMC12067093, “Discovery and optimisation of a covalent ligand for TRIM25 and its application to targeted protein ubiquitination” (Chemical Science, 2025)
This is one part of the list.

Chains of the proteins cited; added tags and fusions are not shown. Lines headed by an entry give the natural chain unless they say otherwise; changes in a name come on top.
UniProt P07919: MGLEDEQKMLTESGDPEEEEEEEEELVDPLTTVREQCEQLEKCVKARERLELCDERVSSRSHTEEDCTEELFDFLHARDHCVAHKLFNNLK
UniProt Q9Y4E8: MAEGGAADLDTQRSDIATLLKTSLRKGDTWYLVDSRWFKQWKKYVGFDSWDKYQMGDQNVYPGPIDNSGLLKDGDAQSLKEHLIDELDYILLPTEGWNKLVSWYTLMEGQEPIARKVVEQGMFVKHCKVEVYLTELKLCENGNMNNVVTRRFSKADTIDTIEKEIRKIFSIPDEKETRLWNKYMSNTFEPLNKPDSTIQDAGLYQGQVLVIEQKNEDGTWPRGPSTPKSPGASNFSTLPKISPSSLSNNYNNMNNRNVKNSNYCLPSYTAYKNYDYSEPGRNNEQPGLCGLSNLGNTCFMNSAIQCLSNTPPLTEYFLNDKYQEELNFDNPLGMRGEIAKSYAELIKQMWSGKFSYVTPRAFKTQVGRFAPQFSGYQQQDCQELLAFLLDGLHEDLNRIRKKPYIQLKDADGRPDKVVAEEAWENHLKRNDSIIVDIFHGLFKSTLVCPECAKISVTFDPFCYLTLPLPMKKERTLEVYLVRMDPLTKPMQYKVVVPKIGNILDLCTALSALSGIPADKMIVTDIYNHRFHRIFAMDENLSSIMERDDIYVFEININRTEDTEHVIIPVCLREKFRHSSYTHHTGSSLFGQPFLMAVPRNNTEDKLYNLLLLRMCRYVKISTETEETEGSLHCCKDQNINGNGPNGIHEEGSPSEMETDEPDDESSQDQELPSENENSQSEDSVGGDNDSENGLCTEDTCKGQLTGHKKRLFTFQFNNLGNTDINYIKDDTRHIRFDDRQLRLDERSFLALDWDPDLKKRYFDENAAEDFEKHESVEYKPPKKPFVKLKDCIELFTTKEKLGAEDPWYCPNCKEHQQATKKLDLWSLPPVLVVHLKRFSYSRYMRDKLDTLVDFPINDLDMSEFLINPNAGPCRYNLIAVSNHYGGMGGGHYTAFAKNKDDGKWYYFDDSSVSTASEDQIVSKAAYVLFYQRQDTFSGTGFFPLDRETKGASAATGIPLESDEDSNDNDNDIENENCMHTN
UniProt Q9NUQ7: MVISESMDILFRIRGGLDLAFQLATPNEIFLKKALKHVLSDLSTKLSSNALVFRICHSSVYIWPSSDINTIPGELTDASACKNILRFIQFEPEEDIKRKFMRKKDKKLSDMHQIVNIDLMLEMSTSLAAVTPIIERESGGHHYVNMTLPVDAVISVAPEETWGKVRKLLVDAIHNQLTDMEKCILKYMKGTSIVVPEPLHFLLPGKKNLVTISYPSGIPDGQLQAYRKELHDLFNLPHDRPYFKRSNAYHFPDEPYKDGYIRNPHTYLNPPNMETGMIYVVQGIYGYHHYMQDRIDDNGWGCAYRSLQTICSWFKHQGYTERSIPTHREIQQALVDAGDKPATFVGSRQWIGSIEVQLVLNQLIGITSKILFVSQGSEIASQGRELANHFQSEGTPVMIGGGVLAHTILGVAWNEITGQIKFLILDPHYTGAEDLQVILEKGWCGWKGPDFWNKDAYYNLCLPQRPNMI
UniProt Q86UV5: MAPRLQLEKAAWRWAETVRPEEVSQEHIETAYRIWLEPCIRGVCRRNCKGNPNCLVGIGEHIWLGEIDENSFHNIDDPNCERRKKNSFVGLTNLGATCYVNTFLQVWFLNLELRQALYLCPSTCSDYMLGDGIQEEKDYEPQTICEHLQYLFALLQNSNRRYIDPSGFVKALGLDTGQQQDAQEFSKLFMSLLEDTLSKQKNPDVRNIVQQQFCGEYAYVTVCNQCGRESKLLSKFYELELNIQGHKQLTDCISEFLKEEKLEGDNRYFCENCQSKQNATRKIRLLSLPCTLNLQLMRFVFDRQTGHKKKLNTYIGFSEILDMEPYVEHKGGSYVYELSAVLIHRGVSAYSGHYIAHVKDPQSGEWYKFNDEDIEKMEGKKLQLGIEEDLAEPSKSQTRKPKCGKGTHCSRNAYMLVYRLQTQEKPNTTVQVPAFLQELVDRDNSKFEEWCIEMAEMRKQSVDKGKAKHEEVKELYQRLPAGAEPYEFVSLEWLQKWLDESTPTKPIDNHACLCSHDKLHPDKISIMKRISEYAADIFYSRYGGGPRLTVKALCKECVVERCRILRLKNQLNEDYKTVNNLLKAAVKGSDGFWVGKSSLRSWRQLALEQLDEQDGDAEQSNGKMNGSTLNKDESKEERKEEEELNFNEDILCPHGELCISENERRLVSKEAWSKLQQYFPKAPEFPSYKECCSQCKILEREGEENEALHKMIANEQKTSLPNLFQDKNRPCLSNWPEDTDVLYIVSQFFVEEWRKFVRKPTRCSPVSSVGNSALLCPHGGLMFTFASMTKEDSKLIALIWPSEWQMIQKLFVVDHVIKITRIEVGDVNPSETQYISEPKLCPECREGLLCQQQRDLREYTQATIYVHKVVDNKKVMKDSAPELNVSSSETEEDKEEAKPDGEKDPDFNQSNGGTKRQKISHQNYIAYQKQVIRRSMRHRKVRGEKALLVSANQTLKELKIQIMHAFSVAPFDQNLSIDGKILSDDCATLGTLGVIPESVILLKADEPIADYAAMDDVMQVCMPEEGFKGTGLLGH
UniProt Q92890: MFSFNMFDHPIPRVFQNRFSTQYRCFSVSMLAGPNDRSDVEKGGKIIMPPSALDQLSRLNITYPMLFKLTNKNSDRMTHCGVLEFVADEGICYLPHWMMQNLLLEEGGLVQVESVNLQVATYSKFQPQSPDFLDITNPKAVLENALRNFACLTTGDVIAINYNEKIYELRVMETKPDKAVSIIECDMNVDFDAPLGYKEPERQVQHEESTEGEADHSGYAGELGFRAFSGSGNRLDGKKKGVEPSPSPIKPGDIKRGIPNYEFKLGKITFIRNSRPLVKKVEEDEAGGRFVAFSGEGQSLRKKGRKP
UniProt P10746: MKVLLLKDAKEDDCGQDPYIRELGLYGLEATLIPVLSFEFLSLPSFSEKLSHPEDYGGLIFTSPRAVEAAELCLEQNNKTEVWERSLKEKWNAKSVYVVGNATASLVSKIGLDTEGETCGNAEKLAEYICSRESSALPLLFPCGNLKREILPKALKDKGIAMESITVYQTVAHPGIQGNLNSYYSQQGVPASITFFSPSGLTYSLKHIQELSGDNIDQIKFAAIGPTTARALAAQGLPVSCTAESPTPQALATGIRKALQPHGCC
UniProt Q96T88: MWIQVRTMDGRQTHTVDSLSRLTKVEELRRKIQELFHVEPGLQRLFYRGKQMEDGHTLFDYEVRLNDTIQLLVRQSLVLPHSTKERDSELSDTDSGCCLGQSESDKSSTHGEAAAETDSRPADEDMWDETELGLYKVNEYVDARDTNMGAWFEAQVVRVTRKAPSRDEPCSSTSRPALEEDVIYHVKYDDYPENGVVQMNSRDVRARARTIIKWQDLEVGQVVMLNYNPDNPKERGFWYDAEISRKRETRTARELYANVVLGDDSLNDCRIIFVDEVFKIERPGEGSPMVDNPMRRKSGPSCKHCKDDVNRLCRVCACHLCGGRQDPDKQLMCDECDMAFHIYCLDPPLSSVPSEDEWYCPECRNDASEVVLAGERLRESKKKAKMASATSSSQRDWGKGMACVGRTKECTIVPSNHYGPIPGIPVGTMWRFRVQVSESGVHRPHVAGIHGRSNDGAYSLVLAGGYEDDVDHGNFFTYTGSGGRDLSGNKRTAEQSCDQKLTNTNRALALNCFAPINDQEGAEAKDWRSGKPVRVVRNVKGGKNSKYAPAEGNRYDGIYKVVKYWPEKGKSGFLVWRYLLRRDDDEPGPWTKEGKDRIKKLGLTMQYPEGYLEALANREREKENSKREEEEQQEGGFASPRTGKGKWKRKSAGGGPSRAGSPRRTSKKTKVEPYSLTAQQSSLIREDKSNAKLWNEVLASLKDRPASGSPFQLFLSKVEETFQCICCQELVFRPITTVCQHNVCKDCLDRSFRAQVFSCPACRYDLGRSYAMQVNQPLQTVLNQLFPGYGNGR
UniProt Q9H3U1: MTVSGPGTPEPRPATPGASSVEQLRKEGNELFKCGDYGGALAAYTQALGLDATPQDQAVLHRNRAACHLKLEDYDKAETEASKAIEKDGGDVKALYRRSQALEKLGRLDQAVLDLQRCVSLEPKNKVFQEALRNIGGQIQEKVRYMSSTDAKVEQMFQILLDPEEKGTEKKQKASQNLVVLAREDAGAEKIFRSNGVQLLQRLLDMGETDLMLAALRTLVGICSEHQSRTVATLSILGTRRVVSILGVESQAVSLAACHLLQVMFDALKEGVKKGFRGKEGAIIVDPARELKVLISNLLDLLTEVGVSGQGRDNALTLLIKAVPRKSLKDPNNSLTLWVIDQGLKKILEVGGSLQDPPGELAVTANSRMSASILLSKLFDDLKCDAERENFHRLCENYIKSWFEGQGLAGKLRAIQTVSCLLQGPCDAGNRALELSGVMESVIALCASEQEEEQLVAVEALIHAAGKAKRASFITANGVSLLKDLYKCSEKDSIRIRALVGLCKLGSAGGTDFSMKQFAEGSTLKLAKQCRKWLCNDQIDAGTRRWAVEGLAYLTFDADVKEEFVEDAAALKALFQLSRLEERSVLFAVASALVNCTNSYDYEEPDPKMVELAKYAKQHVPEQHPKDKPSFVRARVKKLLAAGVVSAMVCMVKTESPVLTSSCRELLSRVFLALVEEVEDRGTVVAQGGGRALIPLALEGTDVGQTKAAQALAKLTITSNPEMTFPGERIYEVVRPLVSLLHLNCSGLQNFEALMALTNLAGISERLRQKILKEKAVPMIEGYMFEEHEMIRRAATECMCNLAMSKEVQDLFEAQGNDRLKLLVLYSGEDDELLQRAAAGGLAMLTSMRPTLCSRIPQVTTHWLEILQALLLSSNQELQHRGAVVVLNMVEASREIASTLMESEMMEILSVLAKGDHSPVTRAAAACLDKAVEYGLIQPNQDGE
UniProt Q9NYU2: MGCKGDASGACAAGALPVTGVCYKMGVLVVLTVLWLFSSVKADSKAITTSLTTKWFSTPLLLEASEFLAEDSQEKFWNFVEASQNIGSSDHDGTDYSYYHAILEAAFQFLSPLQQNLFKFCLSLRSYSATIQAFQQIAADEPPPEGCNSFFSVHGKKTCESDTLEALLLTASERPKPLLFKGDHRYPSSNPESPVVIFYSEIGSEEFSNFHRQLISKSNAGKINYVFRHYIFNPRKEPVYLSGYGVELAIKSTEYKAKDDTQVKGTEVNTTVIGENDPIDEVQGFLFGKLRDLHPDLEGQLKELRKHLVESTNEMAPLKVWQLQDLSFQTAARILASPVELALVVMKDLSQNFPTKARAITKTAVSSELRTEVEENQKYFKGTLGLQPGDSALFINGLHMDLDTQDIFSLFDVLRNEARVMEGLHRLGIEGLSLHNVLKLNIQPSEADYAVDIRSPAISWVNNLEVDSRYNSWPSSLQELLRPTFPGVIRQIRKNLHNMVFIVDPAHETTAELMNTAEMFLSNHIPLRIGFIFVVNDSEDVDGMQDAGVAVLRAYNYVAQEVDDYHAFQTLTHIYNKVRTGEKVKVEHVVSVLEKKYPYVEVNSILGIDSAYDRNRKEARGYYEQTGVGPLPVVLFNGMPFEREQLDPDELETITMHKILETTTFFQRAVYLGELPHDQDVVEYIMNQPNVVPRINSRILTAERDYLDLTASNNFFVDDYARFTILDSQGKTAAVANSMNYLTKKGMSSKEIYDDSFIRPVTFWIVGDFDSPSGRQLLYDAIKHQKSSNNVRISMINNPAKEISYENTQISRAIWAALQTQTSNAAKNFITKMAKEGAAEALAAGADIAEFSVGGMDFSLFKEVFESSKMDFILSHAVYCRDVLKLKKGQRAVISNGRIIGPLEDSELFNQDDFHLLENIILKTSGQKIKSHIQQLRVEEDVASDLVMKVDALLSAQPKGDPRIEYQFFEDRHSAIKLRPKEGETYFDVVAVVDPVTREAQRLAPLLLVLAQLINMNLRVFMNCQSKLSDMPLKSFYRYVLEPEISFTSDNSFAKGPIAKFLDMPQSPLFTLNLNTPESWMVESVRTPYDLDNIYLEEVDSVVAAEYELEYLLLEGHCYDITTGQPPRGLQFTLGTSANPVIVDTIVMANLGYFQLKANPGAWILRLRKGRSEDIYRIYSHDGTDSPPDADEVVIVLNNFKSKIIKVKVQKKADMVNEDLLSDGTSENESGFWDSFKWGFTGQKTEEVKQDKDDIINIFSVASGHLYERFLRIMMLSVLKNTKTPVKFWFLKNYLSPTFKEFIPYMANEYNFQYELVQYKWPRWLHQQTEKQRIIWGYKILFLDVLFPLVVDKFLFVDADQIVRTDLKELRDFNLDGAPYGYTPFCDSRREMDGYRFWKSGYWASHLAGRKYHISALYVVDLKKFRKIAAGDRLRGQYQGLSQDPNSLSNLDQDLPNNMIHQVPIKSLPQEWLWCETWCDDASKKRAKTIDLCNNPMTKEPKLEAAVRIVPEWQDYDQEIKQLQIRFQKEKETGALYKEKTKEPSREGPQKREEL

Compound: CC1Cc2ccccc2N1C(=O)C1CCCN(C1)C(=O)CCl (mixture of isomers) [TRIM25 ligand 11 (diastereomer mixture)]
Assay: probe-labelled cysteine peptide fold change vs DMSO (competition) (log2 fold change); higher = less target engagement (more negative = stronger competition)
Details: THP-1, incubation time: 4 h
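Further: competitive chemoproteomic profiling in live THP-1 cells with an iodoacetamide desthiobiotin (IA-DTB) probe, comparing probe-labelled peptide intensities in compound-treated cells against DMSO-treated controls.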

Target | probe-labelled cysteine peptide fold change (10 µM) | probe-labelled cysteine peptide fold change (50 µM)
UBR5_O95071_2546_ILGLCLLQNELCPITLNR (UniProt O95071) | -0.134 | -0.216
UBTF_P17480_33_GQDRWSQEDMLTLLECMK (UniProt P17480) | -0.328 | -0.395
UQCRC1_P31930_453_YIYDQCPAVAGYGPIEQLPDYNR (UniProt P31930) | 0.0471 | 0.0548
USP22_Q9UPT9_171_KITSNCTIGLR (UniProt Q9UPT9) | 0.0229 | 0.01
USP24_Q9UPU5_1377_LSSSGSNCSSGSEGEPVALHAGICVR (UniProt Q9UPU5) | -0.0255 | -0.21
USP20_Q9Y2K6_393_SSSRPCSPVHHHEGHAK (UniProt Q9Y2K6) | 0.149 | -0.242
UGP2_Q16851_276_CEFVMEVTNK (UniProt Q16851) | 0.0377 | 0.225
UQCRH_P07919_67_SHTEEDCTEELFDFLHAR (UniProt P07919) | -0.357 | -0.434
UGDH_O60701_8+9+20_KICCIGAGYVGGPTCSVIAHMCPEIR (UniProt O60701) | -0.138 | 0.304
USP5_P45974_219_ENLWLNLTDGSILCGR (UniProt P45974) | 0.0437 | -0.0206
URB2_Q14146_478_LFEEVLGVICRPAAEALR (UniProt Q14146) | 0.102 | 0.101
USP15_Q9Y4E8_570_DDIYVFEININRTEDTEHVIIPVCLR (UniProt Q9Y4E8) | 0.305 | 0.113
USP39_Q53GS9_306_AHVSPHEMLQAVVLCSK (UniProt Q53GS9) | 0.15 | 0.066
UHRF1BP1L_A0JNW5_398_NGWANELLHEFECNVEMLK (UniProt A0JNW5) | -0.029 | -0.102
UPF1_Q92900_852_DFIILSCVR (UniProt Q92900) | 0.0988 | 0.132
USP7_Q93009_702_SLNYCGHIYTPISCK (UniProt Q93009) | -0.105 | -0.139
UFSP2_Q9NUQ7_302_IDDNGWGCAYR (UniProt Q9NUQ7) | 0.356 | 0.247
USP48_Q86UV5_512+514_WLDESTPTKPIDNHACLCSHDK (UniProt Q86UV5) | 0.207 | -0.0629
USP14_P54578_415_YEPFSFADDIGSNNCGYYDLQAVLTHQGR (UniProt P54578) | -0.151 | -0.0789
USO1_O60763_678_CQNEQLQTAVTQQVSQIQQHK (UniProt O60763) | 0.0982 | -0.144
UFD1_Q92890_25_CFSVSMLAGPNDR (UniProt Q92890) | -0.0179 | 0.0238
UNC119B_A6NIH7_201_NTCEHIYEFPQLSEDVIR (UniProt A6NIH7) | 0.0351 | -0.0317
UROS_P10746_241_ALAAQGLPVSCTAESPTPQALATGIRK (UniProt P10746) | -0.0739 | -0.126

Target | probe-labelled cysteine peptide fold change (10 µM) | probe-labelled cysteine peptide fold change (50 µM)
UHRF1_Q96T88_497_TAEQSCDQK (UniProt Q96T88) | 0.0456 | -0.184
USP38_Q8NB14_38_VVESAEHWLDEAQCEAMFDLTTR (UniProt Q8NB14) | 0.0837 | 0.224
UBXN1_Q04323_214_EYDQCR (UniProt Q04323) | -0.0848 | 0.0942
UIMC1_Q96RL1_661_VPSPGMEEAGCSR (UniProt Q96RL1) | -0.136 | -0.163
UHRF1_Q96T88_318+321_VCACHLCGGR (UniProt Q96T88) | -0.0653 | 0.0372
USP19_O94966_258_NPGKDDCAK (UniProt O94966) | 0.0406 | -0.0659
USP7_Q93009_721_DLLPVMCDR (UniProt Q93009) | -0.0179 | 0.0994
UNC13B_O14795_1352_QCAVLDLALDTIK (UniProt O14795) | 0.0673 | -0.0592
UBR7_Q8N806_319_LCTCQDCMK (UniProt Q8N806) | -0.0302 | -0.14
UCHL5_Q9Y5K5_191_EGPIDLGACNQDDWISAVRPVIEK (UniProt Q9Y5K5) | 0.0268 | 0.0477
UROS_P10746_265_ALQPHGCC (UniProt P10746) | 0.0492 | -0.0435
UNC45A_Q9H3U1_118_CVSLEPK (UniProt Q9H3U1) | 0.0445 | 0.135
USP24_Q9UPU5_995_QLCSPVDNIQIFTNDSLLTVNK (UniProt Q9UPU5) | 0.0995 | 0.468
USP34_Q70CQ2_1768_HLADCIR (UniProt Q70CQ2) | 0.151 | 0.0972
UNC13D_Q70J99_699_DQGQAANMLCVVVNDMEQLR (UniProt Q70J99) | -0.486 | 0.213
UHRF1_Q96T88_170_DEPCSSTSRPALEEDVIYHVK (UniProt Q96T88) | 0.141 | -0.0845
USP40_Q9NVE5_50_NQGGTCYLNSLLQTLHFTPEFR (UniProt Q9NVE5) | -0.26 | -0.513
UNC45A_Q9H3U1_650_LLAAGVVSAMVCMVK (UniProt Q9H3U1) | -0.155 | 0.00824
UGGT1_Q9NYU2_159_TCESDTLEALLLTASERPKPLLFK (UniProt Q9NYU2) | -0.115 | -0.0147
UNC119_Q13432_190_NTCEHIYDFPPLSEELISEMIR (UniProt Q13432) | -0.435 | -0.155
UNC45A_Q9H3U1_384_CDAERENFHR (UniProt Q9H3U1) | -0.108 | -0.102
UPF1_Q92900_531_QGNGPVLVCAPSNIAVDQLTEK (UniProt Q92900) | 0.285 | 0.158
UBR5_O95071_2267_CATTPMAVHR (UniProt O95071) | -0.0202 | -0.174

Target | probe-labelled cysteine peptide fold change (10 µM) | probe-labelled cysteine peptide fold change (50 µM)
USP15_Q9Y4E8_791_DCIELFTTK (UniProt Q9Y4E8) | -0.0634 | -0.0844
USP24_Q9UPU5_679_LVTGSLIACHR (UniProt Q9UPU5) | -0.168 | 0.072
USP15_Q9Y4E8_570_TEDTEHVIIPVCLR (UniProt Q9Y4E8) | 0.0645 | 0.269
UFL1_O94874_32_NCIEIVNK (UniProt O94874) | 0.1 | 0.0491
USP48_Q86UV5_514_WLDESTPTKPIDNHACLCSHDK (UniProt Q86UV5) | -0.142 | -0.184
USP24_Q9UPU5_1628_CSTANSR (UniProt Q9UPU5) | -0.0433 | -0.0624
USP3_Q9Y6I4_385_SFTDLEELDETELYMCHK (UniProt Q9Y6I4) | 0.00344 | -0.0741
USP34_Q70CQ2_1380_CEELHLHAENLSR (UniProt Q70CQ2) | 0.0994 | -0.0197
UHRF1BP1L_A0JNW5_1235_HYLCNRPVGSDQK (UniProt A0JNW5) | -0.0118 | -0.0626
USP11_P51784_894_DGHYTTFACNK (UniProt P51784) | 0.00141 | -0.34
UBXN6_Q9BZV1_210_INCLEGTHEFFEAIGFQK (UniProt Q9BZV1) | 0.0136 | 0.00194
UROS_P10746_73_AVEAAELCLEQNNKTEVWER (UniProt P10746) | -0.265 | -0.17
UNG_P13051_141_HYTVYPPPHQVFTWTQMCDIK (UniProt P13051) | 0.165 | -0.0181
USP33_Q8TEY7_278_CLMDLLHEELK (UniProt Q8TEY7) | -0.125 | -0.0604
UHRF2_Q96PU4_704_ASDSAEAIEAFQLTPQQQHLIREDCQNQK (UniProt Q96PU4) | -0.17 | 0.0146
UPF1_Q92900_675+683_QLILVGDHCQLGPVVMCK (UniProt Q92900) | -0.154 | -0.207
UQCRC2_P22695_192_NALANPLYCPDYR (UniProt P22695) | 0.0898 | 0.0363
USP19_O94966_659_LVCPVCAK (UniProt O94966) | -0.0373 | 0.0927
USP34_Q70CQ2_3118_SNIRPPRPELNMCLLPTMVETSK (UniProt Q70CQ2) | -0.0166 | 0.0385
UGGT1_Q9NYU2_880_MDFILSHAVYCR (UniProt Q9NYU2) | 0.288 | 0.305
USP19_O94966_1042_ELECAEDPGSAGEAAR (UniProt O94966) | 0.18 | 0.0647
UNK_Q9C0B0_299+308_CNDMQQSGSCPR (UniProt Q9C0B0) | 0.0296 | -0.132
